Data reported in PubChem BioAssay AID256 (DTP/NCI, 2004).
The list is a part of this screen's results and no random one: it gathers tests that were run many times, whatever their T/C, doses with no T/C, and many T/C values between a quarter and a half above the control. Other doses and runs of a compound stand elsewhere. T/C is the treated group as % of the vehicle group. Some entries give survivors of the animals treated and no T/C: the source files T/C as zero there, which appears to mark a toxic dose or a test without result, not a measured value. Some doses without a T/C left all or most animals alive at the check, yet need not have been tolerated: the source hardly ever lists a survival T/C far under the control, and the zero likely stands for such cases as well. Survivors were counted at the toxicity check, usually on the fifth day, unless a day is given; later deaths do not show. Schedules are NCI's codes, read here as Q, the interval in days (D) or hours (H), X, the number of doses. Where survival is the endpoint, this PubChem deposit counts one and a half times the control or more as active, and values a quarter to a half above the control carry no call in these data; other NCI protocols may use other cut-offs. Some T/C values are followed by the survivors on the day toxicity was checked, most often the fifth; where none is given, no animal had died by that day.

System: CD2F1 mice, L1210 leukemia ip, survival T/C
Assay: NCI In Vivo Anticancer Drug Screen. Data for tumor model L1210 Leukemia (intraperitoneal) in CD2F1 (CDF1) mice
Details: higher T/C = longer survival
Procedure, shortened: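 Tumor-bearing mice (transplanted tumor) were split into treated and vehicle control groups, and the measured endpoint of each treated group was divided by that of its vehicle controls.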

[1] = T/C endpoint: median survival time, dose: 400.0 mg/kg/injection, schedule: Q01DX005 (ip), vehicle: Klucel (hydroxypropylcellulose) (HPC)
[2] = T/C endpoint: mean survival time, dose: 300.0 mg/kg/injection, schedule: Q01DX001 (ip), vehicle: saline
[3] = T/C endpoint: mean survival time, dose: 200.0 mg/kg/injection, schedule: Q01DX009 (ip), vehicle: saline with Tween-80
[4] = T/C endpoint: mean survival time, dose: 400.0 mg/kg/injection, schedule: Q01DX009 (ip), vehicle: saline with Tween-80
[5] = T/C endpoint: mean survival time, dose: 200.0 mg/kg/injection, schedule: Q01DX001 (ip), vehicle: saline
[6] = T/C endpoint: mean survival time, dose: 400.0 mg/kg/injection, schedule: Q01DX001 (ip), vehicle: saline
[7] = T/C endpoint: mean survival time, dose: 100.0 mg/kg/injection, schedule: Q01DX009 (ip), vehicle: saline with Tween-80
[8] = T/C endpoint: mean survival time, dose: 400.0 mg/kg/injection, schedule: Q04DX003 (ip), vehicle: saline with Tween-80
[9] = T/C endpoint: mean survival time, dose: 50.0 mg/kg/injection, schedule: Q01DX001 (ip), vehicle: saline with Tween-80
[10] = T/C endpoint: mean survival time, dose: 200.0 mg/kg/injection, schedule: Q01DX001 (ip), vehicle: saline with Tween-80
[11] = T/C endpoint: mean survival time, dose: 400.0 mg/kg/injection, schedule: Q01DX001 (ip), vehicle: saline with Tween-80
[12] = T/C endpoint: mean survival time, dose: 100.0 mg/kg/injection, schedule: Q01DX001 (ip), vehicle: saline with Tween-80
[13] = T/C endpoint: mean survival time, dose: 100.0 mg/kg/injection, schedule: Q04DX003 (ip), vehicle: saline with Tween-80
[14] = T/C endpoint: mean survival time, dose: 200.0 mg/kg/injection, schedule: Q04DX003 (ip), vehicle: saline with Tween-80

In the case of `O=C1CSC(c2cccs2)N1c1nncs1` (centres undefined), the T/C [1] is reported as 132 % of control, the survivor count [1] is reported as 3 of 6 and the survivor count (T/C endpoint: median survival time, dose: 600.0 mg/kg/injection, schedule: Q01DX005 (ip), vehicle: Klucel (hydroxypropylcellulose) (HPC)) is reported as 0 of 6.
In the case of `CCOC(=O)c1c(C)c2c(n1C)CC/C(=C\O)C2=O`, the survivor count (T/C endpoint: mean survival time, dose: 200.0 mg/kg/injection, schedule: Q04DX002 (ip), vehicle: other) is reported as 0 of 3 and the survivor count (T/C endpoint: mean survival time, dose: 400.0 mg/kg/injection, schedule: Q04DX002 (ip), vehicle: other) is reported as 0 of 3.
For `[B-][N+]12CN3CN(CN(C3)C1)C2`, the survivor count (T/C endpoint: mean survival time, dose: 150.0 mg/kg/injection, schedule: Q01DX001 (ip), vehicle: saline) was 1 of 6 and the survivor count [2] was 0 of 6.
`CCN(CC)CCN1Cc2ccccc2C1` was tested, and the survivor count [3] was 0 of 6 and the survivor count [4] was 0 of 6.
In the case of `C1CCC(CCC2CCCC[N-]2)[N-]C1.[I][Co][I]` (centres undefined), the survivor count [5] is reported as 1 of 3 and the survivor count [6] is reported as 0 of 3.
In the case of `OCc1ccn2c1C(O)CC2` (centres undefined), the T/C [7] is reported as 145 % of control [5 of 6 alive], the survivor count [3] is reported as 6 of 6 and the survivor count [4] is reported as 5 of 6.
`Cc1cc(C)c(NC(=O)CC#N)c(C)c1` was tested, and the survivor count [7] was 3 of 3, the survivor count [3] was 3 of 3 and the survivor count [4] was 3 of 3.
For `O=C(O)Cc1ccccc1C(=O)O.[Pb]`, the survivor count [3] was 6 of 6 and the survivor count [8] was 6 of 6.
For `CCC(c1ccc(OC(=O)Cc2ccc(N(CCCl)CCCl)cc2)cc1)C(CC)c1ccc(OC(=O)Cc2ccc(N(CCCl)CCCl)cc2)cc1` (centres undefined), the survivor count (T/C endpoint: mean survival time, dose: 3.1 mg/kg/injection, schedule: Q03HX008 (ip), vehicle: saline with Tween-80) was 6 of 6, the survivor count (T/C endpoint: mean survival time, dose: 6.3 mg/kg/injection, schedule: Q03HX016 (ip), vehicle: saline with Tween-80) was 6 of 6 and the survivor count (T/C endpoint: mean survival time, dose: 12.5 mg/kg/injection, schedule: Q03HX008 (ip), vehicle: saline with Tween-80) was 6 of 6. The survivor count (T/C endpoint: mean survival time, dose: 12.5 mg/kg/injection, schedule: Q03HX016 (ip), vehicle: saline with Tween-80) was 6 of 6, the survivor count (T/C endpoint: mean survival time, dose: 25.0 mg/kg/injection, schedule: Q03HX008 (ip), vehicle: saline with Tween-80) was 6 of 6 and the survivor count (T/C endpoint: mean survival time, dose: 25.0 mg/kg/injection, schedule: Q03HX016 (ip), vehicle: saline with Tween-80) was 6 of 6. The survivor count [9] was 6 of 6, the survivor count (T/C endpoint: mean survival time, dose: 50.0 mg/kg/injection, schedule: Q03HX008 (ip), vehicle: saline with Tween-80) was 6 of 6 and the survivor count (T/C endpoint: mean survival time, dose: 80.0 mg/kg/injection, schedule: Q04DX003 (ip), vehicle: saline) was 10 of 10. The survivor count (T/C endpoint: mean survival time, dose: 120.0 mg/kg/injection, schedule: Q04DX003 (ip), vehicle: saline) was 10 of 10, the survivor count (T/C endpoint: mean survival time, dose: 180.0 mg/kg/injection, schedule: Q04DX003 (ip), vehicle: saline) was 10 of 10 and the survivor count [10] was 6 of 6. The survivor count (T/C endpoint: mean survival time, dose: 270.0 mg/kg/injection, schedule: Q04DX003 (ip), vehicle: saline) was 10 of 10, the survivor count [11] was 6 of 6 and the survivor count [8] was 6 of 6. The survivor count (T/C endpoint: mean survival time, dose: 405.0 mg/kg/injection, schedule: Q04DX003 (ip), vehicle: saline) was 10 of 10 and the survivor count (T/C endpoint: mean survival time, dose: 800.0 mg/kg/injection, schedule: Q08DX002 (ip), vehicle: saline with Tween-80) was 6 of 6.
In the case of `[Cl][Pt+2][Cl].[NH-]c1ccc(F)cc1.[NH-]c1ccc(F)cc1`, the survivor count (T/C endpoint: mean survival time, dose: 200.0 mg/kg/injection, schedule: Q04DX003 (ip), vehicle: distilled water + Tween-80) is reported as 4 of 6.
`N#CCC(=O)O` was tested, and the survivor count (T/C endpoint: mean survival time, dose: 150.0 mg/kg/injection, schedule: Q04DX003 (ip), vehicle: saline) was 6 of 6.
`CN1CCN(CCCN2CC3CC=CCC3C2)CC1` (centres undefined) was tested, and the survivor count (T/C endpoint: mean survival time, dose: 400.0 mg/kg/injection, schedule: Q04DX003 (ip), vehicle: saline) was 0 of 6.
For `FC1CC=C(S)CC1` (centres undefined), the survivor count (T/C endpoint: mean survival time, dose: 100.0 mg/kg/injection, schedule: Q01DX001 (ip), vehicle: saline) was 1 of 6, the survivor count [5] was 0 of 6 and the survivor count [6] was 1 of 6.
In the case of `CC(=O)NO`, the T/C (T/C endpoint: median survival time, dose: 200.0 mg/kg/injection, schedule: Q01DX009 (ip), vehicle: water) is reported as 135 % of control, the T/C (T/C endpoint: median survival time, dose: 200.0 mg/kg/injection, schedule: Q03HX024 (ip), vehicle: water) is reported as 143 % of control and the T/C (T/C endpoint: median survival time, dose: 400.0 mg/kg/injection, schedule: Q01DX009 (ip), vehicle: water) is reported as 144 % of control. The T/C (T/C endpoint: median survival time, dose: 500.0 mg/kg/injection, schedule: Q01DX009 (ip), vehicle: water) was 141 % of control, the T/C (T/C endpoint: median survival time, dose: 1000.0 mg/kg/injection, schedule: Q01DX009 (ip), vehicle: water) was 148 % of control and the survivor count (T/C endpoint: median survival time, dose: 1200.0 mg/kg/injection, schedule: Q01DX009 (ip), vehicle: water) was 4 of 6. The survivor count (T/C endpoint: median survival time, dose: 1600.0 mg/kg/injection, schedule: Q01DX009 (ip), vehicle: water) was 4 of 6.
In the case of `O=C1C=CC(=O)N1c1ccc2c(c1)OCO2`, the survivor count (T/C endpoint: mean survival time, dose: 25.0 mg/kg/injection, schedule: Q01DX009 (ip), vehicle: saline with Tween-80) is reported as 2 of 6.
For `O=C1C=C(C2OC(CO)C(O)C2O)C(=O)N1` (centres undefined), the survivor count [12] was 0 of 6, the survivor count [10] was 0 of 6 and the survivor count [11] was 0 of 6.
For `O=S1(=O)CC(Cl)C(Cl)C1` (centres undefined), the survivor count (T/C endpoint: mean survival time, dose: 100.0 mg/kg/injection, schedule: Q04DX003 (ip), vehicle: alcohol) was 0 of 6 and the survivor count (T/C endpoint: mean survival time, dose: 200.0 mg/kg/injection, schedule: Q04DX003 (ip), vehicle: alcohol) was 0 of 6.
`[Cl][Pt+2][Cl].[NH-]c1cccc(C(F)(F)F)c1.[NH-]c1cccc(C(F)(F)F)c1` was tested, and the survivor count [13] was 2 of 6 and the survivor count [14] was 0 of 6.
In the case of `O=S(=O)(Cl)C(Cl)(Cl)Cl`, the survivor count [14] is reported as 3 of 6.
`[CH3][Sn]([CH3])([Cl])[c]1cc[c]([Sn]([CH3])([CH3])[Cl])cc1` was tested, and the survivor count (T/C endpoint: median survival time, dose: 4.0 mg/kg/injection, schedule: Q01DX009 (ip), vehicle: saline) was 0 of 6, the survivor count (T/C endpoint: median survival time, dose: 8.0 mg/kg/injection, schedule: Q01DX009 (ip), vehicle: saline) was 0 of 6 and the survivor count (T/C endpoint: median survival time, dose: 16.0 mg/kg/injection, schedule: Q01DX009 (ip), vehicle: saline) was 0 of 6.
With `O=Cc1c2ccccc2cc2ccccc12` the T/C [2] was 134 % of control.
In the case of `O=C(O)C[Se](=O)O`, the survivor count [9] is reported as 1 of 3, the survivor count [12] is reported as 1 of 3 and the survivor count [10] is reported as 0 of 3. For the same molecule, the survivor count [11] was 0 of 3.
For `CN(CCO)C1=C(N2CC2)C(=O)C(N(C)CCO)=C(N2CC2)C1=O`, the T/C (T/C endpoint: mean survival time, dose: 1.0 mg/kg/injection, schedule: Q01DX009 (ip), vehicle: saline) was 145 % of control.
In the case of `[Cl][Pt+2][Cl].[NH-]C(CO)C([NH-])CO` (centres undefined), the T/C (T/C endpoint: median survival time, dose: 10.0 mg/kg/injection, schedule: Q04DX003 (ip), vehicle: water) is reported as 125 % of control, the survivor count (T/C endpoint: median survival time, dose: 25.0 mg/kg/injection, schedule: Q04DX003 (ip), vehicle: distilled water + Tween-80) is reported as 4 of 6 and the survivor count (T/C endpoint: median survival time, dose: 50.0 mg/kg/injection, schedule: Q04DX003 (ip), vehicle: distilled water + Tween-80) is reported as 0 of 6. The survivor count (T/C endpoint: median survival time, dose: 100.0 mg/kg/injection, schedule: Q04DX003 (ip), vehicle: distilled water + Tween-80) was 0 of 6 and the survivor count (T/C endpoint: median survival time, dose: 200.0 mg/kg/injection, schedule: Q04DX003 (ip), vehicle: distilled water + Tween-80) was 0 of 6.
`O=C(C[n+]1ccc2ccccc2c1)c1ccccc1` was tested, and the survivor count [7] was 0 of 6, the survivor count (T/C endpoint: mean survival time, dose: 100.0 mg/kg/injection, schedule: Q04DX003 (ip), vehicle: saline sonified) was 0 of 6 and the survivor count [3] was 0 of 6. The survivor count [4] was 0 of 6.
For `C=CCn1c(NCCN(CC)CC)nc2ccc(Cl)cc2c1=O`, the survivor count [13] was 3 of 6, the survivor count [14] was 0 of 6 and the survivor count [8] was 0 of 6.
